Source: paper PMC11167047 (Cell Death Discovery, 2024)
Read-outs that look alike come from different tables or passages of the source.

Tested on: Ramos
Test: AlamarBlue viability assay
Assay type: cell-based
Details: Homo sapiens, 24 h, read-out: IC50 (Ramos)

Compound	IC50 (cytotoxicity)	IC50
CCc1cnn2c(NCc3ccc[n+]([O-])c3)cc(N3CCCC[C@H]3CCO)nc12 [dinaciclib]	0.01 µM	
CC[C@H](CO)Nc1nc(NCc2ccccc2)c2ncn(C(C)C)c2n1 [roscovitine]		12.6 µM
